No constants are given. Whether binding was seen depends on the method and setting. Some entries that bind do so weakly or less than the wild type. Where a sequence is shown, tags or fusion partners need not be part of it.
T1: MinD from Pseudomonas aeruginosa, full-length, His6-tagged (Pseudomonas aeruginosa) (UniProt Q9HYZ6)
T1 sequence: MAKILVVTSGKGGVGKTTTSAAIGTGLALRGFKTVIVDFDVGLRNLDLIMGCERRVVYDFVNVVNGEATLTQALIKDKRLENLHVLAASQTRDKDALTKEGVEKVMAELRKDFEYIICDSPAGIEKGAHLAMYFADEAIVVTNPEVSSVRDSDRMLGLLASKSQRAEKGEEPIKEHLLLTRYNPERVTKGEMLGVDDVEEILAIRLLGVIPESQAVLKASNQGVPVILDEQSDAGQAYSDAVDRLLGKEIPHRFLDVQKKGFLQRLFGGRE

B1: MinC from Pseudomonas aeruginosa, full-length, His6-tagged (natural protein, UniProt Q9HYZ7 1-263, looked up)
chain: MSQADLLDQDPVFQLKGSMLAVTILELAHNDLARLERQLADKVAQAPNFFRDTPLVMALDKLPEGEGRLDLPALLEVCRRHGLRTLAIRAGREEDIAAAQALDLPVLPPSGARERPLDIKDSAPRKPAEEPSPSAGEARPEPAKAEEKPAEPVSRPTKVVKTPVRGGMQIYAAGGDLIVLAAVSPGAELLADGNIHVYGPMRGRALAGVKGDATARIFCQQLAAELVSIAGNYKVAEDLRRSPQWGKAVHVSLSGDVLNITRL
notes: MinC (septum site-determining protein), Pseudomonas aeruginosa, residues 1-263, cloned into pET-15b; only residues 156-261 (MinC^C) are modelled in the cryo-EM map; the tag was not removed; also called MinC2 (dimer); source: E. coli C41(DE3), purified (HisTrap HP, dialysis); not shown: His6, N-terminal, kept
B2: MinD from Pseudomonas aeruginosa, full-length, His6-tagged (protein, UniProt Q9HYZ6 1-271)
chain: T1 sequence

Experiments:
[1] = biological target: T1, MinD from Pseudomonas aeruginosa, full-length, His6-tagged (Pseudomonas aeruginosa); experiment: negative-stain electron microscopy of filaments; ATP-polymerized assemblies of purified MinC and MinD, negatively stained; both purified
[2] = biological target: T1, MinD from Pseudomonas aeruginosa, full-length, His6-tagged (Pseudomonas aeruginosa); experiment: cryo-EM structure; unsupported MinCD filaments in solution; MinC and MinD each 0.5 mg/mL combined in equal proportion in 20 mM HEPES-Na, 100 mM potassium acetate, 5 mM magnesium acetate, pH 7.0; 1 mM ATP, 15 min at room temperature; helical reconstruction; both purified
[3] = biological target: T1, MinD from Pseudomonas aeruginosa, full-length, His6-tagged (Pseudomonas aeruginosa); experiment: cryo-EM imaging with 2D classification of filaments on lipid nanotubes; MinCD mixture combined with lipid nanotubes (E. coli total lipid extract and galactosylceramide, 3:7) before the addition of ATP; polymerization buffer; both purified

Row | binding [1] | binding [2] | binding [3] | Binder
1 | binds | binds | binds | B1
2 |  | binds |  | B2

Reference: article PMC6771821, “Cryo‐EM structure of the MinCD copolymeric filament from Pseudomonas aeruginosa at 3.1 Å resolution” (Febs Letters, 2019)
